Results are given in words; binding and its absence hold for the method and conditions named. In cells and extracts the contact can be indirect.
Biological target: PKN-FLAG (FLAG-tagged PKN1) expressed in HEK293T cells (UniProt Q16512)
Experiment: co-IP

Chains of the proteins cited; added tags and fusions are not shown.
UniProt Q16512: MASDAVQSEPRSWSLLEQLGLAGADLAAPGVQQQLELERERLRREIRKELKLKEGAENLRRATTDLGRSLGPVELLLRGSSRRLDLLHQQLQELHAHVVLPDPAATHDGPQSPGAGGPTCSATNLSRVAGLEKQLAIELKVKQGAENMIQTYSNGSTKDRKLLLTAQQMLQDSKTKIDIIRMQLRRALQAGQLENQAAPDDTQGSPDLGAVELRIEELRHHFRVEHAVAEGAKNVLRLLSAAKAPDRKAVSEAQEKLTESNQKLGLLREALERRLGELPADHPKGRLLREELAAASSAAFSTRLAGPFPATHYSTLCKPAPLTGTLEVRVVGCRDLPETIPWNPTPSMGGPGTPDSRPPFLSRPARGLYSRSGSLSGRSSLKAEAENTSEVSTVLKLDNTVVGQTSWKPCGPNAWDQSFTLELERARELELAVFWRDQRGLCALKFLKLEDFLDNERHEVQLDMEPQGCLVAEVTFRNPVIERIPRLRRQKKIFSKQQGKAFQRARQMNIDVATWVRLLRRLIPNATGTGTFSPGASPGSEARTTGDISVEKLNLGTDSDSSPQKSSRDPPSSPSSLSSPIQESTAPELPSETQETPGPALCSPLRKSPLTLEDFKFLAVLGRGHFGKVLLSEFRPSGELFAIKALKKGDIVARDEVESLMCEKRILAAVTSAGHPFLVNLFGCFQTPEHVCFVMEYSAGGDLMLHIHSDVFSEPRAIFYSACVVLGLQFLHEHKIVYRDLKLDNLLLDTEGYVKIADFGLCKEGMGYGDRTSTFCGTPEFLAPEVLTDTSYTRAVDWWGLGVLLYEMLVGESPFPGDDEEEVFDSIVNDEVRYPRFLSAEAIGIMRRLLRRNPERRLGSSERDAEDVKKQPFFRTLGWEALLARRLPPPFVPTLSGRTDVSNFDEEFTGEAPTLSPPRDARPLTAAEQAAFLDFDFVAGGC
UniProt O00571: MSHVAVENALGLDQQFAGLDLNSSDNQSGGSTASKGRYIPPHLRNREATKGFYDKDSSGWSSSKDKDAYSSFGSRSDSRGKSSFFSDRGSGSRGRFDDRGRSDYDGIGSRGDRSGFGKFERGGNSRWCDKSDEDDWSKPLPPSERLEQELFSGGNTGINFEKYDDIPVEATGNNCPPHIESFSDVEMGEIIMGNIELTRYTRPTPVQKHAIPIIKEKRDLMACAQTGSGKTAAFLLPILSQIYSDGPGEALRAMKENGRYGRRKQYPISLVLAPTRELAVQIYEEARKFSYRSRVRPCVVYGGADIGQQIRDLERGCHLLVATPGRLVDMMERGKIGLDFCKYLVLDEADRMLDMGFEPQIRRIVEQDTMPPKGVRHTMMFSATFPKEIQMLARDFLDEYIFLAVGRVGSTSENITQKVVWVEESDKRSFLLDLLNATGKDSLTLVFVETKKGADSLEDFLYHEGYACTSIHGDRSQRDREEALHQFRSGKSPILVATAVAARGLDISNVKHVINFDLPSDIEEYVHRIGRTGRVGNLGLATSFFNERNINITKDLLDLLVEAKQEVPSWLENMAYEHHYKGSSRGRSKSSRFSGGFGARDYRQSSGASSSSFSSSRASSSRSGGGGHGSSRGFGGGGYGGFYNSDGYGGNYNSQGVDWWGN

Substance: DDX3, endogenous in HEK293T cells (from UniProt O00571 1-662)
- binding: no binding

Source: article PMC4907486
